Test results reported in PubChem BioAssay AID270 (DTP/NCI, 2004).
The list is a part of this screen's results and no random one: it is rich in T/C values a quarter to a half above the control, in often repeated tests (any T/C) and in doses without a T/C. Further doses and runs are listed elsewhere. T/C is the treated group as % of the vehicle group. Schedule codes are those of the source, taken here to give the interval after Q, in days (D) or hours (H), and the number of doses after X. Some T/C values carry the count of animals alive at the toxicity check (mostly the fifth day); where none is given, no animal had died by that day. Some doses have a count of surviving animals in place of a T/C: the source files T/C as zero there, which appears to mark a toxic dose or a test without result, not a measured value. Some survivor counts are full or nearly so, which does not show that the dose was tolerated: the source hardly ever lists a survival T/C far under the control, and the zero likely stands for such cases as well. Counts of survivors are from the toxicity check (mostly the fifth day) where no day follows; animals may have died later. Some doses were run more than once; the values are given in rising order. Some schedule codes hold Z or #, which are not explained here. Where survival is the endpoint, the PubChem record calls one and a half times the control and up active, and a quarter to a half above the control has no call in these data; cut-offs in other NCI protocols can differ.

Tested on: BDF1 mice, s.c. Lewis lung carcinoma, T/C %
Experiment: NCI In Vivo Anticancer Drug Screen. Data for tumor model Lewis Lung Carcinoma (subcutaneous) in B6D2F1 (BDF1) mice
In short: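 Antitumor effect in vivo is scored from survival or tumor burden, reported as treated relative to vehicle controls.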

[1] = T/C endpoint: mean tumor weight, dose: 500.0 mg/kg/injection, schedule: Q01DX011 (ip), vehicle: other, higher T/C = larger tumour
[2] = T/C endpoint: median survival time, dose: 50.0 mg/kg/injection, schedule: Q01DX009 (ip), vehicle: saline with Tween-80, higher T/C = longer survival

For `O=C1NC(c2ccccc2Cl)Nc2ccccc21` (configuration not stated), the survivor count (T/C endpoint: median survival time, dose: 50.0 mg/kg/injection, schedule: Q01DX009 (ip), vehicle: Klucel (hydroxypropylcellulose) (HPC), higher T/C = longer survival) was 10 of 10, the survivor count (T/C endpoint: median survival time, dose: 100.0 mg/kg/injection, schedule: Q01DX009 (ip), vehicle: Klucel (hydroxypropylcellulose) (HPC), higher T/C = longer survival) was 10 of 10 and the survivor count (T/C endpoint: median survival time, dose: 200.0 mg/kg/injection, schedule: Q01DX009 (ip), vehicle: Klucel (hydroxypropylcellulose) (HPC), higher T/C = longer survival) was 10 of 10. The survivor count (T/C endpoint: median survival time, dose: 400.0 mg/kg/injection, schedule: Q01DX009 (ip), vehicle: Klucel (hydroxypropylcellulose) (HPC), higher T/C = longer survival) was 10 of 10.
With `CN(N=O)C(=O)NC1CCOCC1` the survivor count (T/C endpoint: median survival time, dose: 560.0 mg/kg/injection, schedule: Q01DX001 (ip), vehicle: saline with Tween-80, higher T/C = longer survival) was 7 of 7 on day 11.
`c1ccc(OP(Oc2ccccc2)Oc2ccccc2)cc1` was tested, and the survivor count (T/C endpoint: mean tumor weight, dose: 125.0 mg/kg/injection, schedule: Q01DX011 (ip), vehicle: other, higher T/C = larger tumour) was 0 of 6, the survivor count (T/C endpoint: mean tumor weight, dose: 250.0 mg/kg/injection, schedule: Q01DX011 (ip), vehicle: other, higher T/C = larger tumour) was 0 of 6 and the survivor count [1] was 0 of 6.
With `C1CCNCC1` the survivor count (T/C endpoint: mean tumor weight, dose: 200.0 mg/kg/injection, schedule: Q01DX011 (ip), vehicle: saline, higher T/C = larger tumour) was 0 of 6 and the survivor count (T/C endpoint: mean tumor weight, dose: 400.0 mg/kg/injection, schedule: Q01DX011 (ip), vehicle: saline, higher T/C = larger tumour) was 0 of 6.
`NC(=S)N/N=C\c1nccc2c(N)cccc12` was tested, and the T/C [2] was 129 % of control.
`CO[C@H]1/C=C/O[C@@]2(C)Oc3c(C)c(O)c4c(O)c(c(/C=N/N5C(C)CN(Cc6ccccc6)CC5C)c(O)c4c3C2=O)NC(=O)/C(C)=C\C=C\[C@H](C)[C@H](O)[C@@H](C)[C@@H](O)[C@@H](C)[C@H](OC(C)=O)[C@@H]1C` (some centres not stated) was tested, and the survivor count (T/C endpoint: median survival time, dose: 0.4 mg/kg/injection, schedule: Q02DX Z (oral), vehicle: Klucel (hydroxypropylcellulose) (HPC), higher T/C = longer survival) was 8 of 10, the survivor count (T/C endpoint: median survival time, dose: 0.8 mg/kg/injection, schedule: Q02DX Z (oral), vehicle: Klucel (hydroxypropylcellulose) (HPC), higher T/C = longer survival) was 10 of 10 and the survivor count (T/C endpoint: median survival time, dose: 6.25 mg/kg/injection, schedule: Q02DX Z (oral), vehicle: Klucel (hydroxypropylcellulose) (HPC), higher T/C = longer survival) was 8 of 10. The T/C [2] was 125 % of control and the survivor count (T/C endpoint: median survival time, dose: 400.0 mg/kg/injection, schedule: Q01DX009 (ip), vehicle: saline with Tween-80, higher T/C = longer survival) was 10 of 10.
In the case of `COC(C(=O)C(O)C(C)O)C1Cc2cc3cc(OC4CC(OC5CC(O)C(O)C(C)O5)C(O)C(C)O4)c(C)c(O)c3c(O)c2C(=O)C1OC1CC(OC2CC(O)C(OC3CC(C)(O)C(O)C(C)O3)C(C)O2)C(O)C(C)O1` (configuration not stated), the T/C (T/C endpoint: median survival time, dose: 0.25 mg/kg/injection, schedule: Q01DX009 (ip), vehicle: saline, higher T/C = longer survival) is reported as 125 % of control, the survivor count (T/C endpoint: median survival time, dose: 0.5 mg/kg/injection, schedule: Q01DX009 (ip), vehicle: saline, higher T/C = longer survival) is reported as 9 of 10 and the survivor count (T/C endpoint: median survival time, dose: 1.0 mg/kg/injection, schedule: Q01DX009 (ip), vehicle: saline, higher T/C = longer survival) is reported as 5 of 10 and 8 of 10. For the same compound, the survivor count (T/C endpoint: median survival time, dose: 2.0 mg/kg/injection, schedule: Q01DX009 (ip), vehicle: saline, higher T/C = longer survival) was 0 of 10.
With `FCCNC1CCCCC1` the T/C (T/C endpoint: mean tumor weight, dose: 3.0 mg/kg/injection, schedule: Q01DX011 (ip), vehicle: carboxymethylcellulose (CMC), evaluated on day 12, higher T/C = larger tumour) was 126 % of control.
With `CC(C)(CC(=O)O)CC(=O)OCC(=O)[C@@]1(O)CC[C@H]2[C@@H]3CCC4=CC(=O)C=C[C@]4(C)[C@H]3[C@@H](O)C[C@@]21C` the survivor count (T/C endpoint: mean tumor weight, dose: 960.0 mg/kg/injection, schedule: Q01DX011 (sc), vehicle: steroid suspending solution, higher T/C = larger tumour) was 0 of 6.
With `NC(Cc1ccc(N(CCCl)CCCl)cc1)C(=O)O` (configuration not stated) the survivor count (T/C endpoint: mean tumor weight, dose: 20.0 mg/kg/injection, schedule: Q01DX011 (ip), vehicle: saline, higher T/C = larger tumour) was 0 of 6.
In the case of `CC(=O)c1ccc(-c2ccccc2)cc1`, the survivor count (T/C endpoint: mean tumor weight, dose: 148.0 mg/kg/injection, schedule: Q01DX011 (ip), vehicle: other, higher T/C = larger tumour) is reported as 3 of 6, the survivor count [1] is reported as 3 of 6 and the T/C (T/C endpoint: mean tumor weight, dose: 1000.0 mg/kg/injection, schedule: Q01DX011 (ip), vehicle: other, evaluated on day 12, higher T/C = larger tumour) is reported as 145 % of control [5 of 6 alive].
`Cc1cc(CCl)c(C)c(Br)c1C` was tested, and the T/C (T/C endpoint: median survival time, dose: 0.75 mg/kg/injection, schedule: Q01DX009 (ip), vehicle: Klucel (hydroxypropylcellulose) (HPC), higher T/C = longer survival) was 126 % of control.
